Measured data: PubChem BioAssay AID1259424 (University of Nebraska Medical Center, 2018)
This is a random part of about 14,000 deposited reagents. 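Higher correlation or smaller distance means closer resemblance to KSR1 loss; control wells, including KSR1 knockdowns, recur on many plates.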 Further read-outs or replicates are left out here. The record does not give: the time to read-out.

Purpose: 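Seek colon cancer survival genes behaving like KSR1, using a six-gene signature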 (primary screen)
Cell system: human HCT116 colon cancer cells
Knock-down reagent: siRNA pool against human genes, 50 nM
Read-out: 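Six signature mRNAs by branched-DNA multiplex assay, scaled to two housekeeping genes and non-targeting median, log2; matched to mean KSR1 knockdown profile by Pearson correlation and euclidean distance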
Reading the numbers: mean correlation with KSR1 profile: higher = expression change more like KSR1 knockdown

POLR1E (RNA polymerase I subunit E) | mean correlation with KSR1 profile: -0.568
TAC3 (tachykinin precursor 3) | mean correlation with KSR1 profile: 0.208
VCPKMT (valosin containing protein lysine methyltransferase) | mean correlation with KSR1 profile: 0.486
ARHGEF5 (Rho guanine nucleotide exchange factor 5) | mean correlation with KSR1 profile: 0.566
DCUN1D5 (defective in cullin neddylation 1 domain containing 5) | mean correlation with KSR1 profile: 0.591
BPNT1 (3'(2'), 5'-bisphosphate nucleotidase 1) | mean correlation with KSR1 profile: -0.0297
AQP1 (aquaporin 1 (Colton blood group)) | mean correlation with KSR1 profile: 0.0826
ZNF414 (zinc finger protein 414) | mean correlation with KSR1 profile: 0.162
LSAMP (limbic system associated membrane protein) | mean correlation with KSR1 profile: -0.0805
FAM156A (family with sequence similarity 156 member A) | mean correlation with KSR1 profile: -0.147
COX6B1 (cytochrome c oxidase subunit 6B1) | mean correlation with KSR1 profile: -0.308
CACNG7 (calcium voltage-gated channel auxiliary subunit gamma 7) | mean correlation with KSR1 profile: -0.0784
RAD50 (RAD50 double strand break repair protein) | mean correlation with KSR1 profile: 0.0557
IGFLR1 (IGF like family receptor 1) | mean correlation with KSR1 profile: -0.155
HPX (hemopexin) | mean correlation with KSR1 profile: -0.567
UBXN1 (UBX domain protein 1) | mean correlation with KSR1 profile: 0.402
KIF3B (kinesin family member 3B) | mean correlation with KSR1 profile: 0.343
TRIM48 (tripartite motif containing 48) | mean correlation with KSR1 profile: 0.466
GATAD1 (GATA zinc finger domain containing 1) | mean correlation with KSR1 profile: -0.587

2 of these entries in another layout:
Target gene	mean correlation with KSR1 profile
LSAMP (limbic system associated membrane protein)	-0.0805
FAM156A (family with sequence similarity 156 member A)	-0.147
